Results from the supplement of paper PMC10060354, “Discovery of a small molecule ligand of FRS2 that inhibits invasion and tumor growth” (Cellular Oncology, 2022).
Repeats are few or missing, and single values can be far off.

The chains behind the UniProt entries cited, without tags or fusion partners. Where a name states a change or a piece, a line headed by the entry shows the natural chain unless it says otherwise.
UniProt Q5VTU8: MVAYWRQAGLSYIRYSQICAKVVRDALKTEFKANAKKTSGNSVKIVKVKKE
UniProt P19338, whole entry: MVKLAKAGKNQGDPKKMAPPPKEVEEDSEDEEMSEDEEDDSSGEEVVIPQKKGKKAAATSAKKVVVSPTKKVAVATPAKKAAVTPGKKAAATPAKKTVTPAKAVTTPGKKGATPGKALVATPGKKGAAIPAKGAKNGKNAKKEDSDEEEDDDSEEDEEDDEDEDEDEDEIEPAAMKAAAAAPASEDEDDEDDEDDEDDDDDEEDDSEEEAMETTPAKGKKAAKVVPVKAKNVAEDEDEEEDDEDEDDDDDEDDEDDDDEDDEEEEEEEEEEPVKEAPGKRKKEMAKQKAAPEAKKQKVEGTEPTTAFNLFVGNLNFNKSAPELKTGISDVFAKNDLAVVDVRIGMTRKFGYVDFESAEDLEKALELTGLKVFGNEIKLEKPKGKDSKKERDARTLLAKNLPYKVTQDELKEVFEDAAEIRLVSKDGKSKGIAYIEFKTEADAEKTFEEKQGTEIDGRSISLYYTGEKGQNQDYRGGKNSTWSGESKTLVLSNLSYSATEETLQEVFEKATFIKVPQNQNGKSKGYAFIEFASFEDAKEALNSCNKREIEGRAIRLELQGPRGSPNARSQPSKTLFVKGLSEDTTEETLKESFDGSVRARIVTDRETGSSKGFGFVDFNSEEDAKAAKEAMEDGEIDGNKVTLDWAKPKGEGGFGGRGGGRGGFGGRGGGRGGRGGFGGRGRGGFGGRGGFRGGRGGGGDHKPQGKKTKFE
UniProt P54136: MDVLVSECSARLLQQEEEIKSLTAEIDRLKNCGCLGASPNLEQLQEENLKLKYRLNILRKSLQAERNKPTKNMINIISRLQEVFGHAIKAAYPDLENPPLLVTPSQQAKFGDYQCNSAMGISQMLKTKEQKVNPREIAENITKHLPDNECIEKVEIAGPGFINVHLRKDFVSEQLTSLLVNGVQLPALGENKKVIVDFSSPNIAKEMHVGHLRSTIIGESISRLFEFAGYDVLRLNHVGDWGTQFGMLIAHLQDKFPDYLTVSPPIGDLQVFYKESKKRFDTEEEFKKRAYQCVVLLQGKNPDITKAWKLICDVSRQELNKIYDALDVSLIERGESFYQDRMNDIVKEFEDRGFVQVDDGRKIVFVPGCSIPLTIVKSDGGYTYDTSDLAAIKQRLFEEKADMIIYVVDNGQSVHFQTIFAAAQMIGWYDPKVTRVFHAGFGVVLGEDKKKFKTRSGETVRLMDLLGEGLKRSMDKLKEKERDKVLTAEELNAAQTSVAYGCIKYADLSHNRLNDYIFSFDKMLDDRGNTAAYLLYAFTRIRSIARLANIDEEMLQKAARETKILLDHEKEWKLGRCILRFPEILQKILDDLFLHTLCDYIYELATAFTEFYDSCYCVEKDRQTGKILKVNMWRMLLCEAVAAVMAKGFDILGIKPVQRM
UniProt Q9UP52: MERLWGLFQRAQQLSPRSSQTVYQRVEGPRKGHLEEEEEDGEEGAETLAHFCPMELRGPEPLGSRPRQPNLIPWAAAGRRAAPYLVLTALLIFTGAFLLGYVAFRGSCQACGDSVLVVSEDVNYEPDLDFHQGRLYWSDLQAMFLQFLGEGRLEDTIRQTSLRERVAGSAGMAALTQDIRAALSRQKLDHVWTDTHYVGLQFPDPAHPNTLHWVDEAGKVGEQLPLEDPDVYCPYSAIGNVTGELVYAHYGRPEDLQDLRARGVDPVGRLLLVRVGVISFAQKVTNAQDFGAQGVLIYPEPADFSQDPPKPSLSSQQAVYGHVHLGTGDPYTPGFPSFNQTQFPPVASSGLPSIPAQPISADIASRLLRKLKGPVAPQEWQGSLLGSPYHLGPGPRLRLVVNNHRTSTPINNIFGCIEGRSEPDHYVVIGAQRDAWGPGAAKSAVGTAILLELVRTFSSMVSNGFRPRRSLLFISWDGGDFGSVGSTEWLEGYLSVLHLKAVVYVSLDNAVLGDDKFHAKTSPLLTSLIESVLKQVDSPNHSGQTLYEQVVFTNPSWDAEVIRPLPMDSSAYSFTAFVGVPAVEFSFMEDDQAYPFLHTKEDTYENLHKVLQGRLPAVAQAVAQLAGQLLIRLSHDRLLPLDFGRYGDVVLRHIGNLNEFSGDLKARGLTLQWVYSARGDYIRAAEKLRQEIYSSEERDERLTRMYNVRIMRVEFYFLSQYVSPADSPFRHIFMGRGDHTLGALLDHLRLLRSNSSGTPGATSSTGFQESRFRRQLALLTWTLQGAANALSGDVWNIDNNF
UniProt Q01968: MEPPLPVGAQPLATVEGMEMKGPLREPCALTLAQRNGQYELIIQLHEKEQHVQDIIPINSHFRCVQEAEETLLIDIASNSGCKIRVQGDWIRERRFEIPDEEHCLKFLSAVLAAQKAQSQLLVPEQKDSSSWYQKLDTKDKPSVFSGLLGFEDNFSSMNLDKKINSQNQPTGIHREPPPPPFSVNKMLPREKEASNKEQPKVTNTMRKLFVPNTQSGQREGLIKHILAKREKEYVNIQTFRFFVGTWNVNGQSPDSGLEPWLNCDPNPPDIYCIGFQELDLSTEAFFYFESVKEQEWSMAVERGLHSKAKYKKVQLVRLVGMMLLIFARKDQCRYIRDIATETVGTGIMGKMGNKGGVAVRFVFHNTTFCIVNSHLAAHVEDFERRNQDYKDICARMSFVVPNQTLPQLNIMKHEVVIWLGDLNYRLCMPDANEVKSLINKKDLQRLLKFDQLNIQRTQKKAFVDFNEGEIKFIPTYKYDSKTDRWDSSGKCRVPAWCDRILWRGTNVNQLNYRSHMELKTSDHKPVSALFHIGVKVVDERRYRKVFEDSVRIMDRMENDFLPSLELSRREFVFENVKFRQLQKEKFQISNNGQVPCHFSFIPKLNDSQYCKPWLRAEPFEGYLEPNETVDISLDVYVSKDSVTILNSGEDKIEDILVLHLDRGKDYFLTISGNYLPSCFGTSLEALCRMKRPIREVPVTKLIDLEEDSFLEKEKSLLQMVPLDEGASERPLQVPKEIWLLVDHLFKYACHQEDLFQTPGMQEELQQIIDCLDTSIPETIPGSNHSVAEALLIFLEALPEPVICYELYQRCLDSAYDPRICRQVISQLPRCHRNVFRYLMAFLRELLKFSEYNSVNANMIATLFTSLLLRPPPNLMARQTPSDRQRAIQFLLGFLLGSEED
UniProt P15531, whole entry: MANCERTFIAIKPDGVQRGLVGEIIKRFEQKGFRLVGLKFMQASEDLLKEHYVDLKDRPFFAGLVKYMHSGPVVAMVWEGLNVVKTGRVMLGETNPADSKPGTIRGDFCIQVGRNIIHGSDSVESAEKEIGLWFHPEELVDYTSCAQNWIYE
UniProt Q15049: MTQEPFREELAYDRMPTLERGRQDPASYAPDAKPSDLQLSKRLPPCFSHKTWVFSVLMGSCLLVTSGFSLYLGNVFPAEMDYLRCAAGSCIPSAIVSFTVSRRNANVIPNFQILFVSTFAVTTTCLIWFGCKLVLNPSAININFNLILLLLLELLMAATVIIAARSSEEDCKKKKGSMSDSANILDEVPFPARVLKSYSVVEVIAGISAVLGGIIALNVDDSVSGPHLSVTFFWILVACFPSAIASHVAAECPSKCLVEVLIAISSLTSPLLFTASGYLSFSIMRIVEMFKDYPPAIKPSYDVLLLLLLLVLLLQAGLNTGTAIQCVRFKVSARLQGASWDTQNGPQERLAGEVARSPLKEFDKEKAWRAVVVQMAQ
UniProt P61960, whole entry: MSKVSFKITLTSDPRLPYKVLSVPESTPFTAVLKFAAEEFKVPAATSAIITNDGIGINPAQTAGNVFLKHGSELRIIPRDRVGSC
UniProt Q9UP83: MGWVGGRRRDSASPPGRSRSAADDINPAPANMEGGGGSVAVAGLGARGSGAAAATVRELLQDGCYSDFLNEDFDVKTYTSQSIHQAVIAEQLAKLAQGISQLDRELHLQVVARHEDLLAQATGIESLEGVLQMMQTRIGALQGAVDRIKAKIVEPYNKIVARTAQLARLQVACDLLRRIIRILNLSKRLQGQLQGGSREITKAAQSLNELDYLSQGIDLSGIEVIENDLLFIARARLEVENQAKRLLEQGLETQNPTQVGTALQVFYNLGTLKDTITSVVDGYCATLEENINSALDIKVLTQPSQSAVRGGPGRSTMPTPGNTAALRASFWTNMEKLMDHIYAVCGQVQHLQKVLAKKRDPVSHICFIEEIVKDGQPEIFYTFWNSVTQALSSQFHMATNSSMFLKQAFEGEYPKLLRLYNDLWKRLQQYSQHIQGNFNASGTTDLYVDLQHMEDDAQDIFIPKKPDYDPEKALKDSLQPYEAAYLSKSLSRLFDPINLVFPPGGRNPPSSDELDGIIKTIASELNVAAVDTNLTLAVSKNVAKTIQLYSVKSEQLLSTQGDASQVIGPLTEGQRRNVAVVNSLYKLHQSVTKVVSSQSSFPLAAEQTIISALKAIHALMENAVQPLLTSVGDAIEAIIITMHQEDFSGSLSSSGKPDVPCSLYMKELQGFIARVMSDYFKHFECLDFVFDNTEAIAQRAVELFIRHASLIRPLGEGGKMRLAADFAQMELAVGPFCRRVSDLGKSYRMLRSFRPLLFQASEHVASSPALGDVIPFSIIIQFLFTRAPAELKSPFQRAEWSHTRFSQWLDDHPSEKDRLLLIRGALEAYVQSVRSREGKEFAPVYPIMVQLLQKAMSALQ
UniProt Q8N1F7: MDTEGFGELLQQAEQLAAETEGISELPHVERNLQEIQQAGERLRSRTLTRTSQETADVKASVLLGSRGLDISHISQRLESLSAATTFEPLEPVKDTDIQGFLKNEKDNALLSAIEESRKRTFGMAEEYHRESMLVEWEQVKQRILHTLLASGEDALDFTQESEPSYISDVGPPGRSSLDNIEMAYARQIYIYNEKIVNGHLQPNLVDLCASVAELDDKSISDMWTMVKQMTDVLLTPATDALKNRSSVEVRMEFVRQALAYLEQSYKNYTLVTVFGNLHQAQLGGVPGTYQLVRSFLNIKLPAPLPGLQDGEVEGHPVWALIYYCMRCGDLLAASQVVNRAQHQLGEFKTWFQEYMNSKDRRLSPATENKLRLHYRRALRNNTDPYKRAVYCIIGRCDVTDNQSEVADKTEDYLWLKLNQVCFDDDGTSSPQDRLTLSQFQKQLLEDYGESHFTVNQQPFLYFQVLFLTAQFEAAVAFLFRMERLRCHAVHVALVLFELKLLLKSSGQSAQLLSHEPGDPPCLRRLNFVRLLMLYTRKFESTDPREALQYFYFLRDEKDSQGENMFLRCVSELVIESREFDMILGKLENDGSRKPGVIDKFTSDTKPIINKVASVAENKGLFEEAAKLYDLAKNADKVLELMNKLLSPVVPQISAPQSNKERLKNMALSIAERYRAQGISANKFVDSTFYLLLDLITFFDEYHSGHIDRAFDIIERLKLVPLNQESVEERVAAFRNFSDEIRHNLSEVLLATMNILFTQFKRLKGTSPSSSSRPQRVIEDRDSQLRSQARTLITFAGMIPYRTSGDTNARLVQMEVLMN
UniProt Q9H9Y6, whole entry: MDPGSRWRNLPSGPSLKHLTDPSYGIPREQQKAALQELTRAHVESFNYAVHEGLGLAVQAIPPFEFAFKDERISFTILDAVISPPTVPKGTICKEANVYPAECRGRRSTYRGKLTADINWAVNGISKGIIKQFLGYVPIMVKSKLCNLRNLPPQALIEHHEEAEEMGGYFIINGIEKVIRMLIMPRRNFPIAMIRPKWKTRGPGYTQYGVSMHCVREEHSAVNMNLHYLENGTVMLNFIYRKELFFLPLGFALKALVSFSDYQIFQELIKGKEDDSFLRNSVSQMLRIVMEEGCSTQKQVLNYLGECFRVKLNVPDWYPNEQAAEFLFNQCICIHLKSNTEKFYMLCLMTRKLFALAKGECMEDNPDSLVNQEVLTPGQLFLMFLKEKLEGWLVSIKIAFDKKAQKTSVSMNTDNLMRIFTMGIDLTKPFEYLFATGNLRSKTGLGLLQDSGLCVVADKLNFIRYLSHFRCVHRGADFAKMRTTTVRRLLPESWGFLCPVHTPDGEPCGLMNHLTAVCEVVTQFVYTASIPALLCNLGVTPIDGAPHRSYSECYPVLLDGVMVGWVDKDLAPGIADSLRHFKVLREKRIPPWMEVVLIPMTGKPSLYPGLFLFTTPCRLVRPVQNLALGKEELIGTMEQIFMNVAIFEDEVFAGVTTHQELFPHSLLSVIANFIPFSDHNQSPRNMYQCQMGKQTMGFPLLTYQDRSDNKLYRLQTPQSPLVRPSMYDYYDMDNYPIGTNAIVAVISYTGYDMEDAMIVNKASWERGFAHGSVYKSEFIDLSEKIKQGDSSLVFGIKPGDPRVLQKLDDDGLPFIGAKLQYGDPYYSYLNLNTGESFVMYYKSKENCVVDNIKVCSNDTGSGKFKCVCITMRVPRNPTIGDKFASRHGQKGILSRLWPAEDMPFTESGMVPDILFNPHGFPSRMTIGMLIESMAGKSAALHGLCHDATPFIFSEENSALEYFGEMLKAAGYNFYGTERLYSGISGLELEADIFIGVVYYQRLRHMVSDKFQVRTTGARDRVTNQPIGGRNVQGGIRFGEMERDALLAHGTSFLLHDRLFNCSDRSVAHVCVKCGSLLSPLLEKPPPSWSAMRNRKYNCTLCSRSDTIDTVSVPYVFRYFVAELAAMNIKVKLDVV

Compound: [O-][N+](C(C1=C(C(O)=C2)NC(C(C=C3)=CC=C3Cl)C4C1C=CC4)=C2Cl)=O
Assay: melting temperature shift (compound 7 minus DMSO); higher = compound stabilises the protein
Conditions: 10 µM
Method: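 Thermal proteome profiling (TMT mass spectrometry) in intact DAOY medulloblastoma cells or DAOY lysates treated with 10 µM compound 7 or DMSO, heated at 10 temperatures from 40.5 to 73.8 °C for 3 min. Melting curves were fitted with the Bioconductor TPP package, and the melting point difference between compound and vehicle is reported per protein (single curve per condition).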

[1] = system: DAOY cell lysate, treatment time: 20 min, 4 °C
[2] = system: intact DAOY cells, treatment time: 90 min, 37 °C

| Target | melting temperature shift [1] | melting temperature shift [2] |
| --- | --- | --- |
| UniProt O95416 | -0.283 °C | – |
| C17ORF62 (UniProt Q9BQA9) | 1.97 °C | -2.02 °C |
| CLIC1 (UniProt O00299) | -0.434 °C | 0.15 °C |
| UniProt A8MPP1 | -0.612 °C | – |
| UniProt Q68D20 | – | 1.86 °C |
| FASTKD5 (UniProt Q7L8L6) | -0.952 °C | – |
| ARF6 (UniProt P62330) | -1.08 °C | -0.964 °C |
| ZNF330 (UniProt Q9Y3S2) | – | 2.03 °C |
| TRIM26 (UniProt Q12899) | -0.67 °C | -0.185 °C |
| DPP3 (UniProt Q9NY33) | -0.524 °C | -0.356 °C |
| EIF2B2 (UniProt P49770) | -0.464 °C | -0.303 °C |
| FARSB (UniProt Q9NSD9) | 0.114 °C | -0.691 °C |
| UniProt P52895 | -0.143 °C | – |
| DNAJC16 (UniProt Q9Y2G8) | 1.27 °C | – |
| UniProt Q5VTU8 | – | -1.25 °C |
| MRPL40 (UniProt Q9NQ50) | -0.161 °C | – |
| UniProt Q6Y2X3 | – | 2.05 °C |
| UniProt P51805 | – | -0.684 °C |
| CD59 (UniProt P13987) | 2.57 °C | – |
| GALK2 (UniProt Q01415) | 0.195 °C | – |
| NCL (UniProt P19338) | 0.0687 °C | -0.169 °C |
| AIFM2 (UniProt Q9BRQ8) | -1.09 °C | 2.31 °C |
| TNS3 (UniProt Q68CZ2) | -0.919 °C | 0.104 °C |

| Target | melting temperature shift [1] | melting temperature shift [2] |
| --- | --- | --- |
| UQCC2 (UniProt Q9BRT2) | 1.23 °C | -0.342 °C |
| AP4B1 (UniProt Q9Y6B7) | 0.0439 °C | 0.14 °C |
| DNAJC8 (UniProt O75937) | -0.637 °C | -0.375 °C |
| TTC4 (UniProt O95801) | -0.121 °C | -0.162 °C |
| RARS (UniProt P54136) | -0.897 °C | -0.0819 °C |
| STAU1 (UniProt O95793) | 0.628 °C | -0.125 °C |
| WNT5A (UniProt P41221) | -0.949 °C | -0.902 °C |
| GRIPAP1 (UniProt Q4V328) | -0.855 °C | 0.318 °C |
| GTF3C5 (UniProt Q9Y5Q8) | 0.743 °C | 1.72 °C |
| UniProt Q8N4H5 | 1.98 °C | 6.74 °C |
| FNBP1 (UniProt Q96RU3) | 1.86 °C | – |
| DPP7 (UniProt Q9UHL4) | – | 1.39 °C |
| UniProt Q9UP52 | – | 2.71 °C |
| UniProt Q9UNT1 | -2.59 °C | – |
| MARCH5 (UniProt Q9NX47) | -1.03 °C | 1.62 °C |
| TAPBP (UniProt O15533) | 1.52 °C | -0.669 °C |
| CDC27 (UniProt P30260) | -0.101 °C | 0.364 °C |
| UniProt Q6NXR0 | -1.96 °C | – |
| OCRL (UniProt Q01968) | -0.794 °C | -0.169 °C |
| UniProt P15531 | – | -2.65 °C |
| PMVK (UniProt Q15126) | -1.73 °C | -0.792 °C |
| UniProt Q15049 | – | -0.641 °C |
| GCC1 (UniProt Q96CN9) | -0.24 °C | -0.998 °C |

| Target | melting temperature shift [1] | melting temperature shift [2] |
| --- | --- | --- |
| UniProt P15954 | 3.31 °C | – |
| UniProt O43502 | – | 1.42 °C |
| UFM1 (UniProt P61960) | -0.952 °C | 2.35 °C |
| UniProt Q8WVR3 | – | 0.037 °C |
| RDX (UniProt P35241) | -0.93 °C | -0.659 °C |
| COG5 (UniProt Q9UP83) | -1.37 °C | -0.285 °C |
| CTDP1 (UniProt Q9Y5B0) | -0.165 °C | -1.58 °C |
| REPS2 (UniProt Q8NFH8) | – | 1.6 °C |
| UniProt Q7L0J3 | 3.1 °C | 0.757 °C |
| STX6 (UniProt O43752) | -0.964 °C | 0.971 °C |
| SPAG1 (UniProt Q07617) | 0.431 °C | -0.637 °C |
| GOPC (UniProt Q9HD26) | -0.777 °C | -0.469 °C |
| UniProt Q9ULZ3 | -1.13 °C | 0.382 °C |
| P4HB (UniProt P07237) | 1.46 °C | – |
| PEA15 (UniProt Q15121) | 0.229 °C | -0.473 °C |
| UniProt O95164 | -0.529 °C | -1.17 °C |
| MYO5A (UniProt Q9Y4I1) | -0.0698 °C | -0.44 °C |
| ACP1 (UniProt P24666) | -0.473 °C | 0.744 °C |
| UniProt P19105 | – | -0.879 °C |
| DDX41 (UniProt Q9UJV9) | 0.118 °C | – |
| FASN (UniProt P49327) | -0.17 °C | 0.421 °C |
| BAG5 (UniProt Q9UL15) | -0.655 °C | 0.123 °C |
| NUP93 (UniProt Q8N1F7) | -0.0336 °C | -0.396 °C |

Four records drawn at random from those above, as already listed:

| Target | melting temperature shift [1] | melting temperature shift [2] |
| --- | --- | --- |
| UniProt O43502 | – | 1.42 °C |
| UniProt Q15049 | – | -0.641 °C |
| STAU1 (UniProt O95793) | 0.628 °C | -0.125 °C |
| AIFM2 (UniProt Q9BRQ8) | -1.09 °C | 2.31 °C |

More entries follow.

| Target | melting temperature shift [1] | melting temperature shift [2] |
| --- | --- | --- |
| UniProt Q4LDG9 | -0.559 °C | -0.172 °C |
| MDN1 (UniProt Q9NU22) | -0.849 °C | -2.55 °C |
| NDUFS4 (UniProt O43181) | 2.58 °C | – |
| ALDH9A1 (UniProt P49189) | -0.351 °C | 0.394 °C |
| UniProt Q9H9Y2 | 0.32 °C | – |
| SRSF7 (UniProt Q16629) | 1.37 °C | 0.599 °C |
| EPPK1 (UniProt P58107) | 1.34 °C | – |
| RABAC1 (UniProt Q9UI14) | -2.79 °C | – |
| UniProt Q8N8R5 | – | 0.545 °C |
| ZNF148 (UniProt Q9UQR1) | -0.733 °C | – |
| GTF2I (UniProt P78347) | -0.859 °C | -0.0855 °C |
| EXOSC7 (UniProt Q15024) | 0.255 °C | – |
| POLR1B (UniProt Q9H9Y6) | -0.795 °C | -0.597 °C |
| UniProt Q9Y666 | – | -1.41 °C |
| APIP (UniProt Q96GX9) | -2.45 °C | – |
| THUMPD3 (UniProt Q9BV44) | -1.23 °C | 0.384 °C |
| TBCEL (UniProt Q5QJ74) | -1.69 °C | -0.207 °C |
| MICALL2 (UniProt Q8IY33) | -2.98 °C | – |
| UniProt O95625 | -0.328 °C | – |
| NANS (UniProt Q9NR45) | -0.0686 °C | 0.974 °C |
| PRPSAP1 (UniProt Q14558) | -1.07 °C | -1.08 °C |
